These are yes or no findings as the source states them, for the method shown. In cells and extracts the contact can be indirect. Here binding means that the protein was enriched with, or labelled near, the bait; the list need not be complete.
Biological target: MBD3-GFP (mouse) (UniProt Q9Z2D8)
Experiment: affinity purification with mass spectrometry; label-free GFP pulldown in triplicate: MBD3-GFP held on GFP-Trap beads from 2 mg ESC nuclear extract; Buffer C with 300 mM NaCl, 0.1% NP-40, 50 ug/mL ethidium bromide; on-bead digestion, nLC-MS/MS

By UniProt entry, the sequences of proteins in these tests, tags left out.
UniProt Q9Z2D8: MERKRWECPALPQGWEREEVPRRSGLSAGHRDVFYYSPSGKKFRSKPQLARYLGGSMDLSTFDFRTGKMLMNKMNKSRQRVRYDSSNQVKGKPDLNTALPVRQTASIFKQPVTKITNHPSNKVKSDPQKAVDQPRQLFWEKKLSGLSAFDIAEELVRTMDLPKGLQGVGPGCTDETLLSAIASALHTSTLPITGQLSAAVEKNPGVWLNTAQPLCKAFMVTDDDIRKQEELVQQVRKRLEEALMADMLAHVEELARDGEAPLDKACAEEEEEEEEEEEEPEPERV
UniProt O09106: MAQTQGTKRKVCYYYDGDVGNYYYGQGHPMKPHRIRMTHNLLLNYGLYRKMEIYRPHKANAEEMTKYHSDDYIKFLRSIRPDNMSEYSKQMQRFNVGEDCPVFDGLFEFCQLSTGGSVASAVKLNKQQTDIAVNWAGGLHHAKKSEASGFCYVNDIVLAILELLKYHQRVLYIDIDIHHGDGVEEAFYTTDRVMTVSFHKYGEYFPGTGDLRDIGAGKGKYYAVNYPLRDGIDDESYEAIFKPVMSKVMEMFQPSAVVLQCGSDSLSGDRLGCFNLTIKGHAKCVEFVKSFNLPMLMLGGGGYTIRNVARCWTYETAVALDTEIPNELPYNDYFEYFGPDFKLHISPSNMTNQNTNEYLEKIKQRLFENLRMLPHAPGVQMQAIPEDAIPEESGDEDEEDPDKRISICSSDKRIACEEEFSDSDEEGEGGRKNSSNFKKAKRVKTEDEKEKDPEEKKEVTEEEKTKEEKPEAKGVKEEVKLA

binding: binds
Substance: HDAC1 (from UniProt O09106 1-482) (enzyme)

Reference: article PMC6214896
